# Reference: paper PMC5996148
# Amino acid sequences for entries named in this document (tags omitted).
# UniProt P30530, whole entry: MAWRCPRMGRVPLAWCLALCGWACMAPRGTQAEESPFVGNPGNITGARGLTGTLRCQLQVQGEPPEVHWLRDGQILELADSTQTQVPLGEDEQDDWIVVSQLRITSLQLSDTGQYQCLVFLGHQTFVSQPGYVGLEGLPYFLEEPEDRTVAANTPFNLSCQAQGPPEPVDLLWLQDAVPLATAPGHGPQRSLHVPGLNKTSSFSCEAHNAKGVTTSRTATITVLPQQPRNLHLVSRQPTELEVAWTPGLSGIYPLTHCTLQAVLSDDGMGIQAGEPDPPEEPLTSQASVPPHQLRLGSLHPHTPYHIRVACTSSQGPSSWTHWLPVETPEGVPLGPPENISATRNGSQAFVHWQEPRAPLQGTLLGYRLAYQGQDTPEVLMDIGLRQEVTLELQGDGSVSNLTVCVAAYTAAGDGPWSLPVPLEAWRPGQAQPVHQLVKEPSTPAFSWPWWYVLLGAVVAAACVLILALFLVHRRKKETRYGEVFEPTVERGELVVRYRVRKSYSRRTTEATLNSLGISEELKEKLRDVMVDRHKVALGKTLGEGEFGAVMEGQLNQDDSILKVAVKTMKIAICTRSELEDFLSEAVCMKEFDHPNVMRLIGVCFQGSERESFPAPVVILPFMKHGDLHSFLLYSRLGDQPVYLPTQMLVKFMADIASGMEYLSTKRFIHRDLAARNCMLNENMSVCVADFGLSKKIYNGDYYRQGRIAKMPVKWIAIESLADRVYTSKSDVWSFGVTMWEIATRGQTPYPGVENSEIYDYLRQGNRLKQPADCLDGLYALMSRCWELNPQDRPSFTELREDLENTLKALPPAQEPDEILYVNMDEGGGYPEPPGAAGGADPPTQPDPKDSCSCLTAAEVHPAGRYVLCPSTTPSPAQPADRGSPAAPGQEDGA
# The list shows a part of the results. For some assays here: The source does not settle which construct or isoform was used.
# How the values were obtained:
# Test in all cases: protein microarray (ProtoArray v5.0), streptavidin-Alexa Fluor 647
# Details in all cases: 3'-biotin; 20 mM Tris (pH 7.5), 5 mM MgCl2, 100 mM KCl, 0.1% Tween-20, A/T-rich and random oligonucleotide blockers; temperature not stated; high values mean tight binding
# ATPBD4 (human) = test system: ATPBD4 (human)
# ATPIF1 (human) = test system: ATPIF1 (human)
# ATXN3 (human) = test system: ATXN3 (human)
# AXL = AXL (UniProt P30530)
# AYTL1 = target: T1, AYTL1 (UniProt Q7L5N7)
# T1 sequence: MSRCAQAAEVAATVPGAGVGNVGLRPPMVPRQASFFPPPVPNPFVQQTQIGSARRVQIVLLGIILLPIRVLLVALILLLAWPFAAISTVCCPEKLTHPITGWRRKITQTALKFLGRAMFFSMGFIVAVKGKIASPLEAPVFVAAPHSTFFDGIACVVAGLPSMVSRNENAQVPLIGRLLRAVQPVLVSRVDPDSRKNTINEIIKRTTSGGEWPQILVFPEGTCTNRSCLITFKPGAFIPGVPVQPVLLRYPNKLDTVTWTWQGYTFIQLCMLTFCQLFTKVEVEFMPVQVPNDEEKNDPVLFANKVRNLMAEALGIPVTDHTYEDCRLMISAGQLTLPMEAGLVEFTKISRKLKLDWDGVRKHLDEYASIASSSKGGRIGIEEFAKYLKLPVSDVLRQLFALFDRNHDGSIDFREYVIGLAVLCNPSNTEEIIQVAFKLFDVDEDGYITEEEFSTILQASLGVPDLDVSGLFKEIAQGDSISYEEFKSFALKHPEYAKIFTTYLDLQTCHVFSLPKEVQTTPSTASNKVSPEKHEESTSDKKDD
# AZIN1 (human) = test system: AZIN1 (human)
# [1] = test system: Acetyl-coenzyme A synthetase, cytoplasmic (human)
# [2] = test system: Acetyl-coenzyme A transporter 1 (human)
# [3] = test system: Actin-related protein 2/3 complex subunit 4 (human)
# [4] = test system: Activator of 90 kDa heat shock protein ATPase homolog 2 (human)
# [5] = test system: Activin receptor type-2B (human)
# [6] = test system: Acyl carrier protein, mitochondrial (human)
# [7] = test system: Acylphosphatase-1 (human)
# [8] = test system: Adenylate kinase isoenzyme 2, mitochondrial (human)
# [9] = test system: Adenylate kinase isoenzyme 4, mitochondrial (human)
# Adipophilin (human) = test system: Adipophilin (human)
# [10] = test system: Alcohol dehydrogenase class 4 mu/sigma chain (human)
# [11] = test system: Aldehyde dehydrogenase family 16 member A1 (human)
# [12] = test system: Aldehyde dehydrogenase family 3 member B1 (human)
# [13] = test system: Aldehyde dehydrogenase family 8 member A1 (human)
sequence,measurement,setting,value
GGGAGGCTGAGGCAGG [G4-1 biotinylated (PQS2)],binding signal,ATPBD4 (human),-0.328 z-score
same,binding signal,ATPIF1 (human),-0.274 z-score
same,binding signal,ATXN3 (human),-0.346 z-score
same,binding signal,AXL,-0.324 z-score
same,binding signal,AYTL1,-0.294 z-score
same,binding signal,AZIN1 (human),-0.307 z-score
same,binding signal,[1],-0.323 z-score
same,binding signal,[2],-0.335 z-score
same,binding signal,[3],-0.303 z-score
same,binding signal,[4],-0.313 z-score
same,binding signal,[5],-0.291 z-score
same,binding signal,[6],-0.347 z-score
same,binding signal,[7],-0.285 z-score
same,binding signal,[8],-0.328 z-score
same,binding signal,[9],-0.353 z-score
same,binding signal,Adipophilin (human),-0.323 z-score
same,binding signal,[10],-0.325 z-score
same,binding signal,[11],-0.351 z-score
same,binding signal,[12],-0.339 z-score
same,binding signal,[13],-0.357 z-score
